This passage reports binding results from article PMC6298406.

Chains of the proteins cited; added tags and fusions are not shown. Residues count along the entry.
UniProt O14763, residues 56-440: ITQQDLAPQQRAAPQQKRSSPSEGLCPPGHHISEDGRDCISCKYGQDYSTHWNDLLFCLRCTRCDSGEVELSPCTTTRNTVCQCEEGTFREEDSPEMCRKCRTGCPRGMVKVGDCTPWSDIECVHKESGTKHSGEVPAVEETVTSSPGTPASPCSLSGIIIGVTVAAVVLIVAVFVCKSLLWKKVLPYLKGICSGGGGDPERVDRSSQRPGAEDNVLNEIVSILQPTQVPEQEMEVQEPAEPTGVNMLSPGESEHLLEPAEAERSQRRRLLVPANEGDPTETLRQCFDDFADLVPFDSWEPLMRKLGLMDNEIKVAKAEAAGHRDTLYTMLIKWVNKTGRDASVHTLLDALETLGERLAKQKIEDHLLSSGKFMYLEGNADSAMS
UniProt P55060: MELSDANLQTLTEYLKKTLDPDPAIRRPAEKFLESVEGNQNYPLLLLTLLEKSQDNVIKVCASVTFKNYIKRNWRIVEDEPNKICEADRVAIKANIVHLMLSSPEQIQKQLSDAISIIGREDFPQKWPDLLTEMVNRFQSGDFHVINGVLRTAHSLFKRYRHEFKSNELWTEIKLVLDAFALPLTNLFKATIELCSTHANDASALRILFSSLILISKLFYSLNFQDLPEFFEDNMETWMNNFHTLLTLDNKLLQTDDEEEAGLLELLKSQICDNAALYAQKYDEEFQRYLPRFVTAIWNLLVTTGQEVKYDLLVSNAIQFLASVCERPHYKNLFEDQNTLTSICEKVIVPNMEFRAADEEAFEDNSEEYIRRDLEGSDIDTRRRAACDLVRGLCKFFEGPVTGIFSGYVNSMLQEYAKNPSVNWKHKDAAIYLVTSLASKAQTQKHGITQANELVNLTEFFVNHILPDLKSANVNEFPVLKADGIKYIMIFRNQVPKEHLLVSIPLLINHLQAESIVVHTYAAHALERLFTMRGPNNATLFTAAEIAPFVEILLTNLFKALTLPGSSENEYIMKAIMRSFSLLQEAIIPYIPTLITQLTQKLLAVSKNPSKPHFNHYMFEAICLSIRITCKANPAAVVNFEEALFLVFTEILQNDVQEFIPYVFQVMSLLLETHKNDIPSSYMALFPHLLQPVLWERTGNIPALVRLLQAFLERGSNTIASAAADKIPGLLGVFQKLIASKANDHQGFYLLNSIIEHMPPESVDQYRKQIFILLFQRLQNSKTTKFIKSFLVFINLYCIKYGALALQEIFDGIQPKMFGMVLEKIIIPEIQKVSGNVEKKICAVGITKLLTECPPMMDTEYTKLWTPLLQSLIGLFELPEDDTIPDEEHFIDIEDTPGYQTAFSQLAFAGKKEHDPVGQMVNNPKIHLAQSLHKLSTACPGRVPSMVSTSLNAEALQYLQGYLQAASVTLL
UniProt P08238: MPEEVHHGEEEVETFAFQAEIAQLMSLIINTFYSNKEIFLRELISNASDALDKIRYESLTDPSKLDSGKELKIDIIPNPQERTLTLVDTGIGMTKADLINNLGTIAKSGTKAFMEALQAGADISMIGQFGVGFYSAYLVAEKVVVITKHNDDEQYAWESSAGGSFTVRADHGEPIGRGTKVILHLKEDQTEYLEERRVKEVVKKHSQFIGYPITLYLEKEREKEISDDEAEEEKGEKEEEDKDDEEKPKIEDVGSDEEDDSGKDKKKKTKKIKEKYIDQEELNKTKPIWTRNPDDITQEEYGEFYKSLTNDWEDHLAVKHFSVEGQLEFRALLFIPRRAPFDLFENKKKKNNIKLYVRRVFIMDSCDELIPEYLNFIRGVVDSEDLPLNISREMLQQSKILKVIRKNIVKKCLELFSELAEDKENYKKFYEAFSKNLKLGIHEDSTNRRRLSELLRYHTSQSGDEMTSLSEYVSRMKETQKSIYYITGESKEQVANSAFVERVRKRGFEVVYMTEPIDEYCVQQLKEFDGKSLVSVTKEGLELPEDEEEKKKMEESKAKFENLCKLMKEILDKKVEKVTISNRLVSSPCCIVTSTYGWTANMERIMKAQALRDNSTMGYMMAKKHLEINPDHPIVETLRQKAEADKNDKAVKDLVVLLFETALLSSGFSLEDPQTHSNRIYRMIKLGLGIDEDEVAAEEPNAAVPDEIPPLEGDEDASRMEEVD

Results are given in words; binding and its absence hold for the method and conditions named. Binding seen in cells or lysates may run through a third protein. Here binding means that the protein was enriched with, or labelled near, the bait; the list need not be complete.

For this experiment, the target named is Strep-tagged DR5 fusion protein (UniProt O14763). The experiment in a line: affinity purification with mass spectrometry; co-IP of Strep-DR5 protein complexes from transfected 293T cells with an anti-DR5 monoclonal antibody; SDS-PAGE, silver staining, labelled bands identified by MS.

Regarding Exportin-2 (from UniProt P55060 1-971), the binding result was “binds”.
Then “Heat shock protein 90 (HSP 90-beta) (from UniProt P08238 1-724)”, with “binds”.
